The record followed here is article PMC4132731, “Crystal structure of RNase H3–substrate complex reveals parallel evolution of RNA/DNA hybrid recognition”.

For this data set, the target named is T1, Ta-RNase H3 N-domain (Thermovibrio ammonificans) (UniProt E8T217).
T1 sequence (looked up): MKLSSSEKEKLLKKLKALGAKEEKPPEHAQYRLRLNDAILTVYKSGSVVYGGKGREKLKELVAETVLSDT
In words: EMSA. The following applies: weak binding; EMSA: 10% native TAE polyacrylamide gel; recombinant protein; residues 1-70; DNA:RNA hybrid. Background: In EMSA bound probe runs differently from free probe, usually more slowly.

Construct, isoform or probe ends are uncertain for at least one entry. Where a protein sequence is shown, tags need not be part of it.

In the case of “ACAGAGUGCGACACCUGAUUCCAU / ATGGAATCAGGTGTCGCACTCTGT [24-bp RNA/DNA hybrid]”, the binding result is “binds”.
